Source: paper PMC5074804
These are yes or no findings as the source states them, for the method shown. In cells and extracts the contact can be indirect. Some entries that bind do so weakly or less than the wild type.

By UniProt entry, the sequences of proteins in these tests, tags left out.
UniProt P10085: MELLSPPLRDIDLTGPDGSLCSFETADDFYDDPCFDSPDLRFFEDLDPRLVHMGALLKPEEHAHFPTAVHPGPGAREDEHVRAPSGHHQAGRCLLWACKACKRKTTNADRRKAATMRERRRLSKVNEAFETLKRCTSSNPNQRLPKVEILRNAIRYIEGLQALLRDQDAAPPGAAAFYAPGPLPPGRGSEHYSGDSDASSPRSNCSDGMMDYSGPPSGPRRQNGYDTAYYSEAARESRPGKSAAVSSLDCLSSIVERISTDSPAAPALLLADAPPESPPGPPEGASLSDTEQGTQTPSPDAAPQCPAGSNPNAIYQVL
UniProt Q9Z0Z7: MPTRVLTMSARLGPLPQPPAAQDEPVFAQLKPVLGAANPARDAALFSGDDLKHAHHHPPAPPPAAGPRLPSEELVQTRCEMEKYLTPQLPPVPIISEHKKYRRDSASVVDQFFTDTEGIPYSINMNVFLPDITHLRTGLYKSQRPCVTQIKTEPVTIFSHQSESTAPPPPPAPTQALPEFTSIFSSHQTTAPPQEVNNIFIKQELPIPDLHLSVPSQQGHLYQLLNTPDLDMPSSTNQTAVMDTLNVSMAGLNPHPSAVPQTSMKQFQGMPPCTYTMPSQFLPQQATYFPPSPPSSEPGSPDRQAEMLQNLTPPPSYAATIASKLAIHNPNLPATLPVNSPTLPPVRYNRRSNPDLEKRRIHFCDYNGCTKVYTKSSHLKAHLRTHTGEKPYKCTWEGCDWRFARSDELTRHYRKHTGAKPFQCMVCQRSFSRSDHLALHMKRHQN

Molecular target: MyoD (mouse (endogenous in C2C12)) (UniProt P10085)
Assay: co-IP; whole cell extract (600 µg protein) of C2C12 cells differentiated for 5 days; immunoprecipitated with 2 µg anti-MyoD or anti-Mef2 antibody overnight at 4°C, protein G Dynabeads; washed 6 times with 10 mM Tris-HCl, 100 mM NaCl, 1 mM DTT, 0.5% NP40, 0.5% TritonX-100; compared to 1% input and control without primary antibody

binding: binds
Substance: Krüppel-like factor 5 (from UniProt Q9Z0Z7 1-446)
